Here are results for 2 molecules from patent publication US10701928B2, “Method for animal tissue material disinfection and sterilization and corresponding animal tissue soak solution” (Beijing Ruijian Gaoke Biotechnology Co., Ltd., priority 2013, dated 2020).

Some entries repeat one wording, which the source may state once for all of them.

This data set in a line: Differential scanning calorimetry of the treated tissue matrix. The conditions noted are these: Example 5: fresh porcine hide about 1 mm, treated 1-2 hours, washed with phosphate buffer. In kind it is physicochemical. In general terms: In DSC, transitions show as peaks or steps in heat flow.

Regarding `CC(=O)OO` [0.2% peracetic acid, peracetic acid], the “damage on the tissue matrix (DSC)” value is reported as “different degrees of damage on the tissue matrix”.
On to `II` [7.5% iodine solution, iodine], for which the “damage on the tissue matrix (DSC)” value is listed as “different degrees of damage on the tissue matrix”.
